US5449669A, “IgE-binding epitopes of a major heat-stable crustacean allergen derived from shrimp” (The United States of America as represented by the …, priority 1993, dated 1995)
Entries after “also recorded” stand apart in the source; their conditions may differ. Not every detail of the peptide structures is certain; ends, links or a residue may be inferred. Where no end group is shown, it is not given here.

Experiments:
[1] = test system: Pen i I-specific IgE antibodies in the sera of shrimp-sensitive patients; experiment: competitive ELISA (AB-microELISA) inhibition of IgE binding to immobilized shrimp tropomyosin; parameters: species or system human; settings: for concentration at which maximum inhibition of binding of Pen i I-specific IgE to tropomyosin is achieved: HPLC-purified peptides, 10-1000 picomoles/ml, dose dependent, FIG. 4; for blocking of the binding of allergen-specific IgE to tropomyosin: each fragment individually; for maximum inhibition of IgE binding to immobilized tropomyosin: sera diluted 1:10 preincubated with peptide one hour at 37° C., at concentrations above 100 picomoles/ml
[2] = test system: Pen i I-specific a-a-id antibodies; experiment: dot blot immunoassay with Pen i I-specific anti-antiidiotypic (a-a-id) antibodies; format: binding, Mouse
[3] = test system: IgE antibodies in the sera of shrimp-sensitive patients; experiment: dot blot immunoassay for IgE binding using sera of shrimp-sensitive patients; parameters: species or system human; settings: for IgE binding activity (allergenic activity): dot blot, sera of shrimp-sensitive patients
[4] = test system: specific IgG antibodies in the sera of shrimp-sensitive patients; experiment: dot blot immunoassay for specific IgG antibodies (antigenicity); format: binding, human

| Sequence | concentration at which maximum inhibition of binding of Pen i I-specific IgE to tropomyosin is achieved [1] [picomoles/ml] | blocking of the binding of allergen-specific IgE to tropomyosin [1] | maximum inhibition of IgE binding to immobilized tropomyosin [1] | recognition by Pen i I-specific a-a-id antibodies [2] | IgE binding activity (allergenic activity) [3] | IgE binding activity (allergenic activity) ([3]; listed as Fraction 9) | reaction with sera from normal subjects ([3]; sera from normal subjects (negative controls)) | antigenicity (binding of specific IgG antibodies) [4] | inhibition of binding of IgE to native tropomyosin by the HPLC peptide fractions ([1]; sera preincubated with each peptide (100 picomoles/ml), FIG. 3) |
| --- | --- | --- | --- | --- | --- | --- | --- | --- | --- |
| FLAEEADRK [peptide 6, FLAEEADRK] | 100 | about 45% | about 45% | recognized | – | – | – | – | – |
| MQQLENDLDQVQESLLK [peptide 9, MQQLENDLDQVQESLLK] | 100 | about 45% | about 45% | recognized | bound; also recorded: displayed allergenic activity | bind | did not react | antigenic | maximum inhibition |
